Data from PubChem BioAssay AID720504 (National Center for Advancing Translational Sciences (NCATS), 2013).
Values joined by “and” are separate entries in the source; they are usually repeats but may differ in a detail not shown here. Equal values may be shown once. In all, about 360,000 compounds went through this assay and about 10,000 (2.8%) were called active. The inconclusive results got no clear call from the source; some entries with a clear call stand among them for comparison. Calls follow the shape of the dose curve; as a rule, active = well fitted inhibition curve with a large enough effect; inconclusive = small, poorly fitted or top-dose-only effect; inactive = flat fitted curve, though single readings scatter. Where the call is inconclusive, the potency comes from a doubtful curve fit.

Chains of the proteins cited; added tags and fusions are not shown.
UniProt P53350, whole entry, looked up: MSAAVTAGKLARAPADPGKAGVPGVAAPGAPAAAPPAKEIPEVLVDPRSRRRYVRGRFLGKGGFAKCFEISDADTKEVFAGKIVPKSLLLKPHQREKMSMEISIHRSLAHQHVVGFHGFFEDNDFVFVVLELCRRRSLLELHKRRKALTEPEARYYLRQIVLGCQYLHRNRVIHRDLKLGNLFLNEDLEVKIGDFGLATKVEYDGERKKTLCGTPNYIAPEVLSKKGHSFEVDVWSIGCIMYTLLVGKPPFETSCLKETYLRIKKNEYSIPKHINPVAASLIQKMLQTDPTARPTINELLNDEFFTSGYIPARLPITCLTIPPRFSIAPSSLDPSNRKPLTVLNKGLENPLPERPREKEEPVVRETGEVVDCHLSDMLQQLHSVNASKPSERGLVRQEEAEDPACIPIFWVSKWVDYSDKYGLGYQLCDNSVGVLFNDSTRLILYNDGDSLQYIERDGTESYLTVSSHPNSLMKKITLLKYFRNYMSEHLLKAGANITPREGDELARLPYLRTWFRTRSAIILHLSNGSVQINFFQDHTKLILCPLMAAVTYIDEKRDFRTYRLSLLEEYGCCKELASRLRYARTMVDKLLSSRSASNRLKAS

Molecular target: Serine/threonine-protein kinase PLK1 (Homo sapiens) (UniProt P53350)
Test: qHTS for Inhibitors of PLK1-PDB (polo-like kinase 1 - polo-box domain): Primary Screen; also: nearly all actives have a fitted effect of over 65% in size; as to max response, negative = inhibition: series mostly up to about 57 µM
Details: Plk1 PBD binding of FITC phosphopeptide, fluorescence polarization
% is scaled to controls: 0 for no effect and ±100 for the full control effect; potency is read from the fitted curve at half-maximal effect.

| Compound | Potency | max response, negative = inhibition |
| --- | --- | --- |
| N#Cc1c(-c2ccccc2)nc(SCC(=O)N2c3ccccc3Sc3ccccc32)[nH]c1=O | active: 18.9 µM | – |
| O=C(CSc1ccc2c(c1)OCCO2)NCC1CCCO1 (stereo not given) | inconclusive: 26.7 µM [inhibitor, partial curve] | – |
| COCCn1nnnc1C(c1ccc(C)cc1)N1CCN(Cc2ccc3c(c2)OCO3)CC1 (stereo not given) | active: 23.8 µM | – |
| C=C(C)C(=O)Nc1cccc(C2=NOC3(C2)C[C@@H](C(N)=O)N(C(=O)CC(c2ccccc2)c2ccccc2)C3)c1 (stereo not given in full) | inconclusive: 26.7 µM [inhibitor, single point] | – |
| COc1ccc(OC)c(-n2c(=O)c3ccccc3c3ccccc3c2=O)c1 | inconclusive: 29.9 µM [inhibitor, single point] | – |
| c1ccc(Cc2nc3ccccc3s2)cc1 | inconclusive: 29.9 µM [inhibitor, partial curve] | – |
| CCc1ccc(-c2nc(CS(=O)CC(=O)NCCCN3CCC(C)CC3)c(C)o2)cc1 (stereo not given) | active: 26.7 µM | – |
| CCOC(=O)N1CCN(c2c(NCc3ccc(F)cc3)c(=O)c2=O)CC1 | inconclusive: 33.6 µM [inhibitor, partial curve] | – |
| Cc1cccc(N=C2NC(=O)/C(=C/C=C/c3ccco3)S2)c1C | active: 15 µM | – |
| CN(C)S(=O)(=O)Nc1cccc(-c2cn3c(n2)SCC3)c1 | inconclusive: 29.9 µM [inhibitor, partial curve] | – |
| Cc1cccc(NC(=O)c2cc(-c3c(C)cc(C)cc3O)n[nH]2)c1 | inconclusive: 21.2 µM [inhibitor, single point] | – |
| Fc1ccc(-c2ccnc(=S)[nH]2)cc1 | active: 9.47 µM | – |
| CCOC(=O)C1CCCN(C(=O)c2cc3ccc(OC)cc3[nH]2)C1 (stereo not given) | – | inactive: -0.195% |
| Nc1cccc2c1C(=O)N(C(=O)/C=C/c1ccc(F)cc1)C2=O | inconclusive: 10.6 µM [inhibitor, partial curve] | – |
| O=C(Cc1cc(=O)oc2cc(O)ccc12)N[C@@H](Cc1c[nH]c2ccccc12)C(=O)O | inconclusive: 33.6 µM [inhibitor, partial curve, poor fit] | – |
| Cc1onc(-c2ccccc2)c1C(=O)NC(=S)Nc1sc2c(c1C#N)CCC(C)C2 (stereo not given) | active: 9.47 µM | – |
| CCOC(=O)c1c(C)[nH]c(C(=O)CSc2nnc(Nc3ccccc3F)s2)c1C | – | inactive: -0.369% |
| O=C(CN1c2ccccc2Sc2ccccc21)NNC(=S)Nc1ccc(Cl)cc1 | – | inactive: -13.2% |
| COc1ccc(C(=O)NCc2nnc(SCCOc3ccccc3)n2C)cc1 | active: 16.8 µM | – |
| CC(=O)OCCNc1cc(SCc2ccco2)c2nonc2c1[N+](=O)[O-] | inconclusive: 21.2 µM [inhibitor, partial curve] | – |
| COC(=O)c1cc(C)sc1NC(=S)N1CCN(CCc2ccccc2)CC1 | – | inconclusive: -31.1% [inhibitor] |
| COc1ccccc1CNc1nc(NCc2ccccc2OC)c2sccc2n1 | – | inactive: -1.25% |
| N#C/C(=C\c1ccccc1)C(=O)NNS(=O)(=O)c1ccc(Br)cc1 | active: 21.2 µM | – |

| Compound | Potency | max response, negative = inhibition |
| --- | --- | --- |
| Cc1ccc(C(=O)O)cc1NC(=S)NC(=O)c1ccc(-c2ccccc2)cc1 | inconclusive: 33.6 µM [inhibitor, single point] | – |
| Cc1ccc(NC(=O)[C@@H]2CCCN2S(=O)(=O)c2ccccc2F)cc1S(=O)(=O)N1CCOCC1 | inconclusive: 29.9 µM [inhibitor, partial curve] | – |
| S=C(NCCCN1CCOCC1)N1CCN(c2cccc(Cl)c2)CC1 | inconclusive: 29.9 µM [inhibitor, partial curve] | – |
| O=C1OC(Nc2ccc(F)cc2F)c2ccccc21 (stereo not given) | inconclusive: 23.8 µM [inhibitor, partial curve] | – |
| O=C(O)CCSc1nc2ccccc2s1 | inconclusive: 18.9 µM [inhibitor, partial curve] | – |
| CCN1CCN(c2ccc(NC(=O)c3ccc4c(c3)OCCO4)cc2C)CC1 | – | inactive: -0.727% |
| Cc1ccc(S(=O)(=O)/N=C2\C=C(NS(=O)(=O)c3ccc(C)cc3)C(=O)c3ccccc32)cc1 | inconclusive: 21.2 µM [inhibitor, single point] | – |
| CC1=C(C(=O)Nc2ccccc2)C(c2ccncc2)C(C#N)=C(SCC(=O)Nc2ccccc2)N1 (stereo not given) | inconclusive: 67 µM [inhibitor, partial curve] | inactive: -2.17% |
| O=C(CSc1nc2cccnc2n1Cc1ccccc1)N1CCCC1 | active: 29.9 µM | – |
| O=[n+]1c2c(n([O-])c3c1CCC3)CCCC2 | inconclusive: 26.7 µM [inhibitor, single point] | – |
| Cc1ccc(C(c2c(C)nn(-c3ccccc3)c2N)c2c(C)nn(-c3ccccc3)c2N)cc1 | – | inactive: -5.09% |
| C/C(=N\NC(=O)C(O)c1ccccc1)c1ccc(Br)s1 (stereo not given) | – | inactive: -12.6% |
| CS(=O)(=O)N1CCN(C(=O)c2ccc(Cl)s2)CC1 | inconclusive: 16.8 µM [inhibitor, partial curve] | – |
| COc1ccc([C@H]2CC(=O)C=C(c3cc(C=O)ccc3OC)C2)cc1 | – | inactive: -15.2% |
| COc1ccc(NC(=S)Nc2cccc(C(C)=O)c2)cc1OC | inconclusive: 23.8 µM [inhibitor, single point] | – |
| CNc1c(N)n(Cc2ccccc2)c(=O)[nH]c1=O | inconclusive: 18.9 µM [inhibitor, partial curve] | – |
| O=C(N/N=C/c1cc(Cl)cc([N+](=O)[O-])c1O)c1ccccc1NS(=O)(=O)c1cccs1 | inconclusive: 26.7 µM [inhibitor, single point] | – |
| O=C(COC(=O)/C=C/c1ccco1)NCc1ccco1 | inconclusive: 3.36 µM [inhibitor, single point] | – |
| Cc1ccc(N(CC(=O)Nc2cc(C)cc(C)c2)S(=O)(=O)c2c(C)noc2C)cc1 | inconclusive: 37.7 µM [inhibitor, partial curve] | – |
| O=C(CSc1nc(-c2ccccc2)nc2c1Cc1ccccc1O2)Nc1ccc(C(=O)O)cc1 | active: 26.7 µM and active: 21.2 µM | – |
| OC[C@@H]1CN(Cc2ccc(Cl)cc2)C[C@H](n2cnc3c(N4CCN(c5ccccc5)CC4)ncnc32)O1 | – | inactive: -5.7% |
| COc1ccc(N2Nc3n[nH]c(N)c3N2)cc1 | – | inactive: -0.367% |
| NC(=O)C1CCN(C(=O)CN2CCN(c3cccc(C(F)(F)F)c3)CC2)CC1 | inconclusive: 29.9 µM [inhibitor, partial curve] | – |

Laid out differently: 6 of the compounds above
Compound | Potency | max response, negative = inhibition
O=[n+]1c2c(n([O-])c3c1CCC3)CCCC2 | inconclusive: 26.7 µM [inhibitor, single point] | –
C/C(=N\NC(=O)C(O)c1ccccc1)c1ccc(Br)s1 (stereo not given) | – | inactive: -12.6%
CS(=O)(=O)N1CCN(C(=O)c2ccc(Cl)s2)CC1 | inconclusive: 16.8 µM [inhibitor, partial curve] | –
COc1ccc(NC(=S)Nc2cccc(C(C)=O)c2)cc1OC | inconclusive: 23.8 µM [inhibitor, single point] | –
O=C(COC(=O)/C=C/c1ccco1)NCc1ccco1 | inconclusive: 3.36 µM [inhibitor, single point] | –
OC[C@@H]1CN(Cc2ccc(Cl)cc2)C[C@H](n2cnc3c(N4CCN(c5ccccc5)CC4)ncnc32)O1 | – | inactive: -5.7%

More entries follow.

| Compound | Potency | max response, negative = inhibition |
| --- | --- | --- |
| CC(C)N1CCc2c(sc(NC(=S)NC(=O)c3ccccc3)c2C#N)C1 | inconclusive: 5.97 µM [inhibitor, full curve] | – |
| CCOc1cc(N2CCOCC2)c(OCC)cc1NC(=O)CCS(=O)(=O)c1ccc(Cl)cc1 | inconclusive: 26.7 µM [inhibitor, partial curve] | – |
| Cc1cccc(NC(=O)CSc2nc3sc(C)cc3c(=O)n2C)c1 | active: 26.7 µM | – |
| O=c1[nH]c(CSc2nc3ccccc3s2)nc2ccccc12 | inconclusive: 13.4 µM [inhibitor, partial curve] | – |
| CCN(CC)c1ccc(NC(=O)CN2C(=O)CSc3ncccc32)c(C)c1 | inconclusive: 6.7 µM [inhibitor, partial curve] | – |
| CCOC(=O)C1CCCN(C(=O)CN(c2ccc(OC)cc2)S(=O)(=O)c2c(C)noc2C)C1 (stereo not given) | inconclusive: 29.9 µM [inhibitor, partial curve] | – |
| COc1ccc(OC)c(/C=C2\SC(=S)N(NS(=O)(=O)c3ccc(C)cc3)C2=O)c1 | active: 26.7 µM | – |
| Cc1nn(CCc2nn[nH]n2)c2nc(-c3ccc(C4CCCCC4)cc3)cc(C(F)(F)F)c12 | inconclusive: 21.2 µM [inhibitor, single point] | – |
| Cc1ccc(S(=O)(=O)c2c(C)cc(C)nc2N2CCCCC2)cc1 | – | inactive: -7.61% |
| O=C(NNC(=S)NC(=O)c1ccc(Br)cc1)c1ccc([N+](=O)[O-])cc1 | inconclusive: 26.7 µM [inhibitor, partial curve] | – |
| O=C(c1cn(-c2ccccc2)nc1-c1ccncc1)n1nnc2ccccc21 | – | inconclusive: -32.6% [inhibitor] |
| COc1ccccc1CNN | inconclusive: 26.7 µM [inhibitor, single point] | – |
| CC(=O)N/N=C/c1cc(C(C)C)cc(/C=N/NC(C)=O)c1O | active: 21.2 µM | – |
| O=C(NCCN1CCN(c2ccccc2)CC1)c1ccccc1F | active: 23.8 µM | – |
| COc1ccc2ccc3c(c2c1)N=C[C@]1(O3)N(C)c2ccccc2C1(C)C | active: 2.99 µM | – |
| Cn1c2c(c(=O)n(C)c1=O)C(c1ccccc1F)C(C#N)=C(N)O2 (stereo not given) | inconclusive: 23.8 µM [inhibitor, partial curve] | – |
| CC(C)Cc1nnc(NC(=O)Cc2ccccc2[N+](=O)[O-])s1 | inconclusive: 29.9 µM [inhibitor, partial curve] | – |
| CCc1cccc(CC)c1NC(=O)C1CN(S(=O)(=O)c2ccccc2)CCN1S(=O)(=O)c1ccccc1 (stereo not given) | – | inactive: -1.09% |
| C=CCNc1nc(Cl)nc(Nc2cc(Cl)ccc2OC)n1 | active: 21.2 µM | – |
| O=C(N/N=C/C=C\c1ccco1)c1ccccn1 | inconclusive: 26.7 µM [inhibitor, single point] | – |
| Nc1nnc(-c2cccc(F)c2)s1 | inconclusive: 29.9 µM [inhibitor, partial curve] | – |
| CCOC(=O)CN1NC2(CCCCCC2)NC1=S | – | inactive: 1.03% |
| Cc1cc2nnc(SCC(=O)N3CCN(c4ccccc4)CC3)n2c(N)n1 | inconclusive: 29.9 µM [inhibitor, single point] | – |
